Experimental data from patent publication US7893056B2, “Peptide deformylase inhibitors” (GlaxoSmithKline LLC, priority 2007, dated 2011).
Some entries share one result that the patent states for a list of compounds.

Key:
[1] = target: T1, Staphylococcus aureus PDF (SaPDF) (Staphylococcus aureus, UniProt P68826); test: PDF IC50 assay (FDH-coupled), S. aureus PDF; format: biochemical; conditions: read-out: IC50, inhibition of S. aureus PDF activity
T1 sequence (P68826 1-183): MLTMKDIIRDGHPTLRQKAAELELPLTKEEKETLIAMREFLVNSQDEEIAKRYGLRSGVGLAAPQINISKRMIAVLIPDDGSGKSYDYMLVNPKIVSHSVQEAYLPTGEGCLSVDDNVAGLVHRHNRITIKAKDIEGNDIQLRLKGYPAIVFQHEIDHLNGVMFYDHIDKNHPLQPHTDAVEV

[2] = target: T2, Streptococcus pneumoniae PDF (Streptococcus pneumoniae serotype 4, UniProt Q9F2F0); test: PDF IC50 assay (FDH-coupled), S. pneumoniae PDF; format: biochemical; conditions: read-out: IC50, inhibition of S. pneumoniae PDF activity
T2 sequence (Q9F2F0 1-203): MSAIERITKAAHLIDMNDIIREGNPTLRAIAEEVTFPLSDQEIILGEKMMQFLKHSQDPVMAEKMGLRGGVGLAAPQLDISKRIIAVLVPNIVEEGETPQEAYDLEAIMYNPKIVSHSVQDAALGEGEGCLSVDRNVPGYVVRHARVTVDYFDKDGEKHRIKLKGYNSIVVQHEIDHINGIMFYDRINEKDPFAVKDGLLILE

## C[C@@H]1[C@@H](C)N(c2nc(Cl)nc(NNC(=O)[C@H](CC3CCCC3)CN(O)C=O)c2F)CCN1C [Example 198, N-[(2R)-3-(2-{2-Chloro-5-fluoro-6-[(2R,3R)-2,3,4-trimethyl-1-piperazinyl]-4-pyrimidinyl}hydrazino)-2-(cyclopentylmethyl)-3-oxopropyl]-N-hydroxyformamide]
[1]
  IC50: ≤ 100 nM
[2]
  IC50: ≤ 100 nM

## COCCNc1nc(SC)nc(NNC(=O)[C@H](CC2CCCC2)CN(O)C=O)c1F [Example 47, ((2R)-2-(Cyclopentylmethyl)-3-{2-[5-fluoro-6-{[2-(methyloxy)ethyl]amino}-2-(methylthio)-4-pyrimidinyl]hydrazino}-3-oxopropyl)hydroxyformamide]
[1]
  IC50: ≤ 100 nM
[2]
  IC50: ≤ 100 nM

## Cc1nc(NNC(=O)[C@H](CC2CCCC2)CN(O)C=O)c(F)c(N2C[C@@H](O)C(C)(C)C2)n1 [Example 116, [(2R)-2-(Cyclopentylmethyl)-3-(2-{5-fluoro-6-[(4S)-4-hydroxy-3,3-dimethyl-1-pyrrolidinyl]-2-methyl-4-pyrimidinyl}hydrazino)-3-oxopropyl]hydroxyformamide]
[1]
  IC50: ≤ 100 nM
[2]
  IC50: ≤ 100 nM

## Cc1nc(NNC(=O)[C@H](CC2CCCC2)CN(O)C=O)c(F)c(N2CCN(C)[C@H](C)[C@@H]2C)n1 [Example 180, N-[(2R)-2-(Cyclopentylmethyl)-3-(2-{5-fluoro-2-methyl-6-[(2S,3R)-2,3,4-trimethyl-1-piperazinyl]-4-pyrimidinyl}hydrazino)-3-oxopropyl]-N-hydroxyformamide]
[1]
  IC50: ≤ 100 nM
[2]
  IC50: ≤ 100 nM

## CC(C)(CNc1nc(Cl)nc(NNC(=O)[C@H](CC2CCCC2)CN(O)C=O)c1F)N1CCOCC1 [Example 157, [(2R)-3-[2-(2-Chloro-5-fluoro-6-{[2-methyl-2-(4-morpholinyl)propyl]amino}-4-pyrimidinyl)hydrazino]-2-(cyclopentylmethyl)-3-oxopropyl]hydroxyformamide]
[1]
  IC50: ≤ 100 nM
[2]
  IC50: ≤ 100 nM

## C[C@@H]1CN(c2nc(Cl)nc(NNC(=O)[C@H](CC3CCCC3)CN(O)C=O)c2F)CCN1C [Example 62, [(2R)-3-(2-{2-Chloro-6-[(3R)-3,4-dimethyl-1-piperazinyl]-5-fluoro-4-pyrimidinyl}hydrazino)-2-(cyclopentylmethyl)-3-oxopropyl]hydroxyformamide]
[1]
  IC50: ≤ 100 nM
[2]
  IC50: ≤ 100 nM

## CCc1nc(NNC(=O)[C@H](CC2CCCC2)CN(O)C=O)c(F)c(N2CC[C@H](N(C)C)C2)n1 [Example 28, N-[(2R)-2-(Cyclopentylmethyl)-3-(2-{6-[(3S)-3-(dimethylamino)-1-pyrrolidinyl]-2-ethyl-5-fluoro-4-pyrimidinyl}hydrazino)-3-oxopropyl]-N-hydroxyformamide]
[1]
  IC50: ≤ 100 nM
[2]
  IC50: ≤ 100 nM

## Cc1nc(NNC(=O)[C@H](CC2CCCC2)CN(O)C=O)c(F)c(N2C[C@H](C(=O)N(C)C)[C@@H](C)C2)n1 (racemic) [Example 90, (trans)-1-{6-[2-((2R)-3-Cyclopentyl-2-{[formyl(hydroxy)amino]methyl}propanoyl)hydrazino]-5-fluoro-2-methyl-4-pyrimidinyl}-N,N,4-trimethyl-3-pyrrolidinecarboxamide]
[1]
  IC50: ≤ 100 nM
[2]
  IC50: ≤ 100 nM

## CCc1nc(NNC(=O)[C@H](CC2CCCC2)CN(O)C=O)c(F)c(N2C[C@@H](C)[C@@H](N(C)C)C2)n1 (single isomer, unassigned) [Example 120]
[1]
  IC50: ≤ 100 nM
[2]
  IC50: ≤ 100 nM

## O=CN(O)C[C@@H](CC1CCCC1)C(=O)NNc1nc(Cl)nc(NC2CC2)c1F [Example 127, [(2R)-3-{2-[2-Chloro-6-(cyclopropylamino)-5-fluoro-4-pyrimidinyl]hydrazino}-2-(cyclopentylmethyl)-3-oxopropyl]hydroxyformamide]
[1]
  IC50: ≤ 100 nM
[2]
  IC50: ≤ 100 nM

## Cc1nc(NNC(=O)[C@H](CC2CCCC2)CN(O)C=O)c(F)c(N2C[C@H](C)[C@@H](N(C)C)C2)n1 (racemic) [Example 89, [(2R)-2-(Cyclopentylmethyl)-3-(2-{6-[(trans)-3-(dimethylamino)-4-methyl-1-pyrrolidinyl]-5-fluoro-2-methyl-4-pyrimidinyl}hydrazino)-3-oxopropyl]hydroxyformamide]
[1]
  IC50: ≤ 100 nM
[2]
  IC50: ≤ 100 nM

## C[C@@H]1CN(c2nc(C(F)F)nc(NNC(=O)[C@H](CC3CCCC3)CN(O)C=O)c2F)C[C@H]1N(C)C [Example 91, [(2R)-2-(Cyclopentylmethyl)-3-(2-{2-(difluoromethyl)-6-[(trans)-3-(dimethylamino)-4-methyl-1-pyrrolidinyl]-5-fluoro-4-pyrimidinyl}hydrazino)-3-oxopropyl]hydroxyformamide]
[1]
  IC50: ≤ 100 nM
[2]
  IC50: ≤ 100 nM

## CCC1(O)CN(c2nc(Cl)nc(NNC(=O)[C@H](CC3CCCC3)CN(O)C=O)c2F)C1 [Example 199, [(2R)-3-{2-[2-Chloro-6-(3-ethyl-3-hydroxy-1-azetidinyl)-5-fluoro-4-pyrimidinyl]hydrazino}-2-(cyclopentylmethyl)-3-oxopropyl]hydroxyformamide]
[1]
  IC50: ≤ 100 nM
[2]
  IC50: ≤ 100 nM

## COCCN(C)c1nc(Cl)nc(NNC(=O)[C@H](CC2CCCC2)CN(O)C=O)c1F [Example 57, [(2R)-3-[2-(2-Chloro-5-fluoro-6-{methyl[2-(methyloxy)ethyl]amino}-4-pyrimidinyl)hydrazino]-2-(cyclopentylmethyl)-3-oxopropyl]hydroxyformamide]
[1]
  IC50: ≤ 100 nM
[2]
  IC50: ≤ 100 nM

## O=CN(O)C[C@@H](CC1CCCC1)C(=O)NNc1nc(Cl)nc(N2CCC[C@H]2CCO)c1F [Example 248, [(2R)-3-(2-{2-Chloro-5-fluoro-6-[(2S)-2-(2-hydroxyethyl)-1-pyrrolidinyl]-4-pyrimidinyl}hydrazino)-2-(cyclopentylmethyl)-3-oxopropyl]hydroxyformamide]
[1]
  IC50: ≤ 100 nM
[2]
  IC50: ≤ 100 nM

## CSc1nc(NNC(=O)[C@H](CC2CCCC2)CN(O)C=O)c(F)c(N(C)Cc2nccs2)n1 [Example 205, ((2R)-2-(Cyclopentylmethyl)-3-{2-[5-fluoro-6-[methyl(1,3-thiazol-2-ylmethyl)amino]-2-(methylthio)-4-pyrimidinyl]hydrazino}-3-oxopropyl)hydroxyformamide]
[1]
  IC50: ≤ 100 nM
[2]
  IC50: ≤ 100 nM

## Cc1nc(NNC(=O)[C@H](CC2CCCC2)CN(O)C=O)c(F)c(N2CCN(C)C[C@@H]2C)n1 [Example 108, [(2R)-2-(Cyclopentylmethyl)-3-(2-{6-[(2S)-2,4-dimethyl-1-piperazinyl]-5-fluoro-2-methyl-4-pyrimidinyl}hydrazino)-3-oxopropyl]hydroxyformamide]
[1]
  IC50: ≤ 100 nM
[2]
  IC50: ≤ 100 nM

## Cc1nc(NNC(=O)[C@H](CC2CCCC2)CN(O)C=O)c(F)c(N2CC=CC2)n1 [Example 6, ((2R)-2-(Cyclopentylmethyl)-3-{2-[6-(2,5-dihydro-1H-pyrrol-1-yl)-5-fluoro-2-methyl-4-pyrimidinyl]hydrazino}-3-oxopropyl)hydroxyformamide]
[1]
  IC50: ≤ 100 nM
[2]
  IC50: ≤ 100 nM

## O=CN(O)C[C@@H](CC1CCCC1)C(=O)NNc1nc(Cl)nc(N2CC(F)(F)C2)c1F [Example 251, [(2R)-3-{2-[2-Chloro-6-(3,3-difluoro-1-azetidinyl)-5-fluoro-4-pyrimidinyl]hydrazino}-2-(cyclopentylmethyl)-3-oxopropyl]hydroxyformamide]
[1]
  IC50: ≤ 100 nM
[2]
  IC50: ≤ 100 nM

## Cc1nc(NNC(=O)[C@H](CC2CCCC2)CN(O)C=O)c(F)c(N(C)Cc2csc(N)n2)n1 [Example 119, N-[(2R)-3-[2-(6-{[(2-Amino-1,3-thiazol-4-yl)methyl](methyl)amino}-5-fluoro-2-methyl-4-pyrimidinyl)hydrazino]-2-(cyclopentylmethyl)-3-oxopropyl]-N-hydroxyformamide]
[1]
  IC50: ≤ 100 nM
[2]
  IC50: ≤ 100 nM

## CSc1nc(NNC(=O)[C@H](CC2CCCC2)CN(O)C=O)c(F)c(N2CCC[C@H]2C(=O)N(C)C)n1 [Example 48, 1-[6-[2-((2R)-3-Cyclopentyl-2-{[formyl(hydroxy)amino]methyl}propanoyl)hydrazino]-5-fluoro-2-(methylthio)-4-pyrimidinyl]-N,N-dimethyl-L-prolinamide]
[1]
  IC50: ≤ 100 nM
[2]
  IC50: ≤ 100 nM

## Cc1nc(NNC(=O)[C@H](CC2CCCC2)CN(O)C=O)c(F)c(N(C)Cc2ccncc2)n1 [Example 105, [(2R)-2-(Cyclopentylmethyl)-3-(2-{5-fluoro-2-methyl-6-[methyl(4-pyridinylmethyl)amino]-4-pyrimidinyl}hydrazino)-3-oxopropyl]hydroxyformamide]
[1]
  IC50: ≤ 100 nM
[2]
  IC50: ≤ 100 nM

## Cc1nc(NNC(=O)[C@H](CC2CCCC2)CN(O)C=O)c(F)c(N2C[C@@H]3OCO[C@@H]3C2)n1 [Example 87, ((2R)-2-(Cyclopentylmethyl)-3-{2-[5-fluoro-2-methyl-6-(tetrahydro-5H-[1,3]dioxolo[4,5-c]pyrrol-5-yl)-4-pyrimidinyl]hydrazino}-3-oxopropyl)hydroxyformamide]
[1]
  IC50: ≤ 100 nM
[2]
  IC50: ≤ 100 nM

## Cc1nc(NNC(=O)[C@H](CC2CCCC2)CN(O)C=O)c(F)c(N2CC(N(C)C)C(C)(C)C2)n1 (mixture of isomers) [Example 129, [(2R)-2-(Cyclopentylmethyl)-3-(2-{6-[4-(dimethylamino)-3,3-dimethyl-1-pyrrolidinyl]-5-fluoro-2-methyl-4-pyrimidinyl}hydrazino)-3-oxopropyl]hydroxyformamide]
[1]
  IC50: ≤ 100 nM
[2]
  IC50: ≤ 100 nM
